The list shows a part of the results. Most entries show no effect beyond the scatter of the controls.
Compound: CN[C@@H]1C[C@H]2O[C@@](C)([C@@H]1OC)n1c3ccccc3c3c4c(c5c6ccccc6n2c5c31)C(=O)NC4 [staurosporine]
Experiment: log2 fold change of tryptic peptide abundance, ligand vs vehicle (limited proteolysis) (log2 ratio); higher = more trypsin-susceptible (destabilized)
Conditions: ligand concentration: 20 uM; sample: K562 cleared lysate; digestion: 4 min, 22 C (HT-PELSA RT4min, Orbitrap Astral)

Amino acid sequences for entries named in this document (tags omitted). A change or cut given only in a name is not applied to a line headed by its entry.
UniProt Q9Y4E5: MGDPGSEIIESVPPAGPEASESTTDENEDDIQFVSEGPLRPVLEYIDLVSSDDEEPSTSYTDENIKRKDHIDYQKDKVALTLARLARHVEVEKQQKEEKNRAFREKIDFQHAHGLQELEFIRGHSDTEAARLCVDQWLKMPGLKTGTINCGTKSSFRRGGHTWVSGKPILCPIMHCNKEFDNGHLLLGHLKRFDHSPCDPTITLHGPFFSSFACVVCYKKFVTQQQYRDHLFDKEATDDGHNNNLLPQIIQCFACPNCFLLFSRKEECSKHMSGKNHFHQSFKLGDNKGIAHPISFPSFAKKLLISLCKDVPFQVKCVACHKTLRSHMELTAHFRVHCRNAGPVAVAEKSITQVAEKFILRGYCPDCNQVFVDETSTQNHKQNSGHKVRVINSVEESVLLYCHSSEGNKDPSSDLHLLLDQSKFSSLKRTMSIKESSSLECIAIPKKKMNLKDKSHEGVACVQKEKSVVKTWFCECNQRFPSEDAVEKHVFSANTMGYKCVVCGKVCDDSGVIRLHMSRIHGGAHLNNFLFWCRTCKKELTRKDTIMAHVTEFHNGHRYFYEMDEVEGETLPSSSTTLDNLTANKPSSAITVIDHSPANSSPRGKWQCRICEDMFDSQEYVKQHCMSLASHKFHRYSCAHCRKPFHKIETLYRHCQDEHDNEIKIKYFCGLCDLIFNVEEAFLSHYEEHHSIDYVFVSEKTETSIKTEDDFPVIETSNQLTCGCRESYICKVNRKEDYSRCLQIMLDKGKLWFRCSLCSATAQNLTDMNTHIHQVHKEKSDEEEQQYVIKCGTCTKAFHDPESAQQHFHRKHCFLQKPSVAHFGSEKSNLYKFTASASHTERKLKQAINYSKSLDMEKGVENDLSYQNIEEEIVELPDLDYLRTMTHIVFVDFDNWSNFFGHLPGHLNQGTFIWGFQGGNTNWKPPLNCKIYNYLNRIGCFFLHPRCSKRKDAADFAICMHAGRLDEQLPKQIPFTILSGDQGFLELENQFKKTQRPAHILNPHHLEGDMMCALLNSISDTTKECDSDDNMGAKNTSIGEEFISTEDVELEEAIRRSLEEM
UniProt Q9Y5K3: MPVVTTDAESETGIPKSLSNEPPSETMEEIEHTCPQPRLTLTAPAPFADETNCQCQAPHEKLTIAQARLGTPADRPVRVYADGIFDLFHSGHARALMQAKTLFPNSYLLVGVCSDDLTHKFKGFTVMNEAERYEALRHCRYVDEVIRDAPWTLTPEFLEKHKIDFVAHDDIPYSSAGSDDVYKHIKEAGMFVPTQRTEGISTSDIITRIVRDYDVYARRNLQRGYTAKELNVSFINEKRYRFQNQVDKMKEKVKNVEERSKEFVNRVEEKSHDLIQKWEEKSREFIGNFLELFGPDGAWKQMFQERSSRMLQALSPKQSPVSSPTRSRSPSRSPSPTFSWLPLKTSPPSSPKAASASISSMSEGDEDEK
UniProt Q9Y5J7: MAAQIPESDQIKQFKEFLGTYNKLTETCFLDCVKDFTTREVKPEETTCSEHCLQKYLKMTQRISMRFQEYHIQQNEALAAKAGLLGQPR
UniProt Q9Y4H2: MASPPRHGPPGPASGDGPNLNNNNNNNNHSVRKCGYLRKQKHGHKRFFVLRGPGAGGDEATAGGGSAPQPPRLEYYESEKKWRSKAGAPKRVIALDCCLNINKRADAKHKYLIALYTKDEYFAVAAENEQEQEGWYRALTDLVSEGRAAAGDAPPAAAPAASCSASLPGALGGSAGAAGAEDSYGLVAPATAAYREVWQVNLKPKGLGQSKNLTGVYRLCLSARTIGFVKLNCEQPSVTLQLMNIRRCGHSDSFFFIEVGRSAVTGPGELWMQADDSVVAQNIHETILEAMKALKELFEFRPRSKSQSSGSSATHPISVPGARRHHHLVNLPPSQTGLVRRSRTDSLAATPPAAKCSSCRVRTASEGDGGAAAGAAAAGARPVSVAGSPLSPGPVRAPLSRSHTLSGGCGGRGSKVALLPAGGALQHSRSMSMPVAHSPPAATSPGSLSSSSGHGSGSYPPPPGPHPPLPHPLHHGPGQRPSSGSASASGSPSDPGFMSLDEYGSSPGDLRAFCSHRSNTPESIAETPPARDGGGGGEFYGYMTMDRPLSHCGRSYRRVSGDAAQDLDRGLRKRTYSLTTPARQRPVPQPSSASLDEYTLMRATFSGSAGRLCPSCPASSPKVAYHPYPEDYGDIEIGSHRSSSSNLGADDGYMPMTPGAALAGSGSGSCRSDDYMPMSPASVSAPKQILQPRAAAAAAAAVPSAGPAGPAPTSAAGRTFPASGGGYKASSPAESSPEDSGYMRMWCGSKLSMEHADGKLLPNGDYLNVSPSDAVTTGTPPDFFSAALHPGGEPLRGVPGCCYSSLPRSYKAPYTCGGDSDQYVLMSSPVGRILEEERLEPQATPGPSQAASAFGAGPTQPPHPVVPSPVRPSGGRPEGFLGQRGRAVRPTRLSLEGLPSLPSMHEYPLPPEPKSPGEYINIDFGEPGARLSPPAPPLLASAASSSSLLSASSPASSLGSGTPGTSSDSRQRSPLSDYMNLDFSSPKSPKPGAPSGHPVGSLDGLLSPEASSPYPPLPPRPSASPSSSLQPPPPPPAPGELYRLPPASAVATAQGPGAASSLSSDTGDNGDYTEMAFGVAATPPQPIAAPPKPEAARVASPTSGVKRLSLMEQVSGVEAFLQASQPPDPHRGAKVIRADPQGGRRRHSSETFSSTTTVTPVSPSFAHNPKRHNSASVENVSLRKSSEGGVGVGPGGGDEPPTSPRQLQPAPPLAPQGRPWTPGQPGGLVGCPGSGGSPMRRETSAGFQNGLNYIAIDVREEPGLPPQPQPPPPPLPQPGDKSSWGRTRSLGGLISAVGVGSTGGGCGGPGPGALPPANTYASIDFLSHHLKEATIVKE
UniProt Q9Y485, whole entry: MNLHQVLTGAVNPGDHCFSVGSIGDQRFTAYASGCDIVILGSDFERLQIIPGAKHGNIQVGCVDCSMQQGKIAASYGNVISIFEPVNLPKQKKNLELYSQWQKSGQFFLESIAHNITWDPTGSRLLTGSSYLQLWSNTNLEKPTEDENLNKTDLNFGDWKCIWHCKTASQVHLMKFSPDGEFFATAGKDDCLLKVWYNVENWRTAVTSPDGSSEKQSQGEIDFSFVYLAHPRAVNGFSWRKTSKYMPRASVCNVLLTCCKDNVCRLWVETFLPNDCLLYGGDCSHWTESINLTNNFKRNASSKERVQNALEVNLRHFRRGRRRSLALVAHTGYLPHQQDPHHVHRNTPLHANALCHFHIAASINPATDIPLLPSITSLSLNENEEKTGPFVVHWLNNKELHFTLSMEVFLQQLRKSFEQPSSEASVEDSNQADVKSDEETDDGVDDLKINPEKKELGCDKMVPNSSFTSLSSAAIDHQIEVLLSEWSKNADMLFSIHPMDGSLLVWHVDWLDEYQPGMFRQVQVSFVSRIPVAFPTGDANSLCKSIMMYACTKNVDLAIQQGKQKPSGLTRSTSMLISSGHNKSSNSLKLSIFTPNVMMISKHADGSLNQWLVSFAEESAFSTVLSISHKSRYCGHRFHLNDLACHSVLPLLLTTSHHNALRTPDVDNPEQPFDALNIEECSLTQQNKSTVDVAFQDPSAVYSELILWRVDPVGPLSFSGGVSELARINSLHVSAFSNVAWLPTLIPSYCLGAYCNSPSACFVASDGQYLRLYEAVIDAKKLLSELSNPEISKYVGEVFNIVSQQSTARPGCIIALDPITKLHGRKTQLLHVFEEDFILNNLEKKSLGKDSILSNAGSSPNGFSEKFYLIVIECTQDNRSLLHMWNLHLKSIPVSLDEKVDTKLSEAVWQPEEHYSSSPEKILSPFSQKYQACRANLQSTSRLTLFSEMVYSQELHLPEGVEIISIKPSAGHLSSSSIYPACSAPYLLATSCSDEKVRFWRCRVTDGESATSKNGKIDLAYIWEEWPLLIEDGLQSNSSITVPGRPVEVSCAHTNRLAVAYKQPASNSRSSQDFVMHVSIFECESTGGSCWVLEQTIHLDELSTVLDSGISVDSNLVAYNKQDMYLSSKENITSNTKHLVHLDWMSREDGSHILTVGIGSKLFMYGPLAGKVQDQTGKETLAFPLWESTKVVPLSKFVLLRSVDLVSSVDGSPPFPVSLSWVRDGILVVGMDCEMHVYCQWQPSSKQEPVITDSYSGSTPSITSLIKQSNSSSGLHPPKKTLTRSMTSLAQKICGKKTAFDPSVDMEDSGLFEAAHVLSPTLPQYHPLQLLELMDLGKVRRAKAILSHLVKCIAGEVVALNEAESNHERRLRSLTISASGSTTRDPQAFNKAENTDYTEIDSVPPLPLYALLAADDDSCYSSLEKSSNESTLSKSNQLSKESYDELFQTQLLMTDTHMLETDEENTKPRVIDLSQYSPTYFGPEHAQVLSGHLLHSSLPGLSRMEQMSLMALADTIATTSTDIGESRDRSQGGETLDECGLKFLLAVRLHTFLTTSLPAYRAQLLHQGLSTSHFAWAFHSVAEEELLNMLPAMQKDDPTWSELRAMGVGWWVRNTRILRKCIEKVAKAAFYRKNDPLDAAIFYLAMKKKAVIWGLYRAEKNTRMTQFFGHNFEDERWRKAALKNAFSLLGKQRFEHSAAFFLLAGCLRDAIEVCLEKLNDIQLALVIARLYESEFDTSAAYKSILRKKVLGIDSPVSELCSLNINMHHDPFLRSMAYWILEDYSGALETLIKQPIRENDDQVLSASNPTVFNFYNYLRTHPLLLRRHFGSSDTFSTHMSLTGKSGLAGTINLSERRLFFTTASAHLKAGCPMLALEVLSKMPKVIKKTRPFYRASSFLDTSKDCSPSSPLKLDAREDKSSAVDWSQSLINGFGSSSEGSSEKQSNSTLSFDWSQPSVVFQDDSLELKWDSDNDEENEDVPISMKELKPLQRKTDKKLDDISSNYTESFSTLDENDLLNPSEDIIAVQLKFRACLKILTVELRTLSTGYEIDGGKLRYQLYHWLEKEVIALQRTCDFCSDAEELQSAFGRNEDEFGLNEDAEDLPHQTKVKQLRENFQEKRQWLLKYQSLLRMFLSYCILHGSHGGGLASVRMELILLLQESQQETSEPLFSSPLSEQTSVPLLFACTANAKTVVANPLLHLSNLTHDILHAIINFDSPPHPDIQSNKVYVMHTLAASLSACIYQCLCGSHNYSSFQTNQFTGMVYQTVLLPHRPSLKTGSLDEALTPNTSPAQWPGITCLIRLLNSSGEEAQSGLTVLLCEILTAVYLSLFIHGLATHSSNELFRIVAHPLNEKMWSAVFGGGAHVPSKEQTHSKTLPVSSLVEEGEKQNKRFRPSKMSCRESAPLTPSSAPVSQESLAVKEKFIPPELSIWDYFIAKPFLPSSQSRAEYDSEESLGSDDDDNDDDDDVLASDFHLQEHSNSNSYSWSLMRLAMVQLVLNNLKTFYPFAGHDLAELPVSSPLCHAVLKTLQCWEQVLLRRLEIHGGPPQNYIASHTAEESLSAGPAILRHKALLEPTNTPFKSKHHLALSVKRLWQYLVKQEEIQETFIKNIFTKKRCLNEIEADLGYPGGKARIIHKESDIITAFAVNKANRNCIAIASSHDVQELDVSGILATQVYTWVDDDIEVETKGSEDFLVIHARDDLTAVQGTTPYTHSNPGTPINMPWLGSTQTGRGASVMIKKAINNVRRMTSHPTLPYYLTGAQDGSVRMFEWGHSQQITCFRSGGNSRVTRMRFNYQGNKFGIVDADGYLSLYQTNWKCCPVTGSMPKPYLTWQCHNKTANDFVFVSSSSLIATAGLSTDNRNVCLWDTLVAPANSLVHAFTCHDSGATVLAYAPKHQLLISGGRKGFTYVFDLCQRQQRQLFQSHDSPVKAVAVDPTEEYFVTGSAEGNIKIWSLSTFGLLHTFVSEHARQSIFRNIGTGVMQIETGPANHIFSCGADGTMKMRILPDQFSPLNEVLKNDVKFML
UniProt Q9Y4P8: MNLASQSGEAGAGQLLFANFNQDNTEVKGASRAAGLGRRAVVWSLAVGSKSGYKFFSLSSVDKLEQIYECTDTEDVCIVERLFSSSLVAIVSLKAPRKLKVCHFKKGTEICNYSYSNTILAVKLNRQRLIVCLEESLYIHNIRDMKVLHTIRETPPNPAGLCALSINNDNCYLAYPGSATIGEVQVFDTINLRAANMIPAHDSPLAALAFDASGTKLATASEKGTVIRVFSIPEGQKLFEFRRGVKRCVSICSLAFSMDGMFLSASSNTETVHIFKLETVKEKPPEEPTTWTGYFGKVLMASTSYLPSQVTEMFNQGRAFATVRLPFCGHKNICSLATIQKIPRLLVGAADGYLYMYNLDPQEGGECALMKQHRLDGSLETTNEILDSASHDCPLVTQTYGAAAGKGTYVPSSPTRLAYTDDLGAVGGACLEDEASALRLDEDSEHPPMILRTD
UniProt Q9Y5V0: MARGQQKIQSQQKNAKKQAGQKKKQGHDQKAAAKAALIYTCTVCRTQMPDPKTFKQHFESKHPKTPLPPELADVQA
UniProt Q9Y6H1: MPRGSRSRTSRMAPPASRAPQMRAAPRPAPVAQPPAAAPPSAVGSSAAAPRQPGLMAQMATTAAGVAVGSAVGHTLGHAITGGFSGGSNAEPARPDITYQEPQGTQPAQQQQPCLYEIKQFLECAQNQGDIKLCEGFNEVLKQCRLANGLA

**Q.** Which log2 fold change does the source give for “MYH4 (peptide sequence: QLEEETK, peptide start residue: 1322) (UniProt Q9Y623)” here?
**A.** -0.181

**Q.** For “UniProt Q9Y4F3 (peptide sequence: ELQQLLQEAFAR, peptide start residue: 806)”, which log2 fold change is on record?
**A.** -0.58

**Q.** With “IPP (peptide sequence: YIEGVSDFNLR, peptide start residue: 239) (UniProt Q9Y573)” as the target, how does the log2 fold change read?
**A.** 0.116

**Q.** “ZNF451 (peptide sequence: GHSDTEAARLCVDQWLK, peptide start residue: 123) (UniProt Q9Y4E5)” was tested. Which log2 fold change did it give?
**A.** -0.565

**Q.** Which log2 fold change does the source give for “UniProt Q9Y4C1 (peptide sequence: LFSKPASK, peptide start residue: 760)” here?
**A.** 0.523

**Q.** With “MAGED1 (peptide sequence: IPFTFWAR, peptide start residue: 730) (UniProt Q9Y5V3)” as the target, how does the log2 fold change read?
**A.** -0.183

**Q.** Which log2 fold change does the source give for “PLEKHM1 (peptide sequence: SWISEDDFYRPSR, peptide start residue: 440) (UniProt Q9Y4G2)” here?
**A.** -0.129

**Q.** With “PCYT1B (peptide sequence: MLQALSPK, peptide start residue: 310) (UniProt Q9Y5K3)” as the target, how does the log2 fold change read?
**A.** 0.0714

**Q.** How did the log2 fold change turn out when “FKBP7 (peptide sequence: KNDHDGDGFISPK, peptide start residue: 200) (UniProt Q9Y680)” was run?
**A.** -0.502

**Q.** How did the log2 fold change turn out when “RBM19 (peptide sequence: ELFSTFGELK, peptide start residue: 850) (UniProt Q9Y4C8)” was run?
**A.** -0.304

**Q.** “DYNC1LI1 (peptide sequence: LPAGKNVLLLGEDGAGKTSLIR, peptide start residue: 64) (UniProt Q9Y6G9)” was tested. Which log2 fold change did it give?
**A.** 0.637

**Q.** Which log2 fold change does the source give for “TIMM9 (peptide sequence: LTETCFLDCVKDFTTR, peptide start residue: 24) (UniProt Q9Y5J7)” here?
**A.** 0.0667

**Q.** With “GMPPB (peptide sequence: FVEKPQVFVSNK, peptide start residue: 159) (UniProt Q9Y5P6)” as the target, how does the log2 fold change read?
**A.** 0.53

**Q.** “COMMD10 (peptide sequence: VLVEFSHK, peptide start residue: 175) (UniProt Q9Y6G5)” was tested. Which log2 fold change did it give?
**A.** -0.291

**Q.** Which log2 fold change does the source give for “NCOA3 (peptide sequence: YLLDRDDPSDALSK, peptide start residue: 740) (UniProt Q9Y6Q9)” here?
**A.** -0.167

**Q.** How did the log2 fold change turn out when “WNK2 (peptide sequence: KGTFTDDLHK, peptide start residue: 2243) (UniProt Q9Y3S1)” was run?
**A.** 0.155

**Q.** With “IRS2 (peptide sequence: RVSGDAAQDLDR, peptide start residue: 558) (UniProt Q9Y4H2)” as the target, how does the log2 fold change read?
**A.** -0.978

**Q.** How did the log2 fold change turn out when “MAD1L1 (peptide sequence: QELQEQLDLQHKK, peptide start residue: 188) (UniProt Q9Y6D9)” was run?
**A.** -0.594

**Q.** With “UniProt Q9Y5S9 (peptide sequence: GFGSEEGSR, peptide start residue: 39)” as the target, how does the log2 fold change read?
**A.** -0.132

**Q.** “NOC2L (peptide sequence: QMYITYVR, peptide start residue: 335) (UniProt Q9Y3T9)” was tested. Which log2 fold change did it give?
**A.** -0.21

**Q.** How did the log2 fold change turn out when “KCTD3 (peptide sequence: NGLNSTEGEAR, peptide start residue: 150) (UniProt Q9Y597)” was run?
**A.** -0.127

**Q.** How did the log2 fold change turn out when “DMXL1 (peptide sequence: MFLSYCILHGSHGGGLASVR, peptide start residue: 2132) (UniProt Q9Y485)” was run?
**A.** 0.863

**Q.** With “WIPI2 (peptide sequence: LFSSSLVAIVSLKAPR, peptide start residue: 82) (UniProt Q9Y4P8)” as the target, how does the log2 fold change read?
**A.** 0.637

**Q.** How did the log2 fold change turn out when “NCOR2 (peptide sequence: YPPHSLSYPVQIAR, peptide start residue: 19) (UniProt Q9Y618)” was run?
**A.** 0.371

**Q.** For “RAPGEF2 (peptide sequence: ILSLSEEGSLER, peptide start residue: 1087) (UniProt Q9Y4G8)”, which log2 fold change is on record?
**A.** -0.207

**Q.** How did the log2 fold change turn out when “UniProt Q9Y592 (peptide sequence: KEELETENQVLNR, peptide start residue: 592)” was run?
**A.** -0.267

**Q.** “USP16 (peptide sequence: QMLISLAPPVLTLHLKR, peptide start residue: 683) (UniProt Q9Y5T5)” was tested. Which log2 fold change did it give?
**A.** -0.249

**Q.** “HYOU1 (peptide sequence: RPLKNDEL, peptide start residue: 992) (UniProt Q9Y4L1)” was tested. Which log2 fold change did it give?
**A.** -0.104

**Q.** Which log2 fold change does the source give for “UniProt Q9Y5V0 (peptide sequence: AALIYTCTVCR, peptide start residue: 35)” here?
**A.** -0.0172

**Q.** With “UniProt Q9Y3Y2 (peptide sequence: ASMQQQQQLASAR, peptide start residue: 39)” as the target, how does the log2 fold change read?
**A.** -0.329

**Q.** How did the log2 fold change turn out when “TRRAP (peptide sequence: LLLNLVDCIR, peptide start residue: 422) (UniProt Q9Y4A5)” was run?
**A.** -0.534

**Q.** How did the log2 fold change turn out when “SH3BP1 (peptide sequence: RSLSSLDTALAELR, peptide start residue: 240) (UniProt Q9Y3L3)” was run?
**A.** 0.265

**Q.** Which log2 fold change does the source give for “TBL2 (peptide sequence: AMVEEMQGHLK, peptide start residue: 407) (UniProt Q9Y4P3)” here?
**A.** 0.246

**Q.** With “ZNF330 (peptide sequence: GKQPPCPKCGHETQETK, peptide start residue: 208) (UniProt Q9Y3S2)” as the target, how does the log2 fold change read?
**A.** -0.154

**Q.** With “ORC6 (peptide sequence: IGQQVDREPGDVATPPR, peptide start residue: 182) (UniProt Q9Y5N6)” as the target, how does the log2 fold change read?
**A.** 0.223

**Q.** Which log2 fold change does the source give for “CHCHD2 (peptide sequence: AAPRPAPVAQPPAAAPPSAVGSSAAAPR, peptide start residue: 24) (UniProt Q9Y6H1)” here?
**A.** -0.0183

**Q.** How did the log2 fold change turn out when “GTF3C3 (peptide sequence: GEREEAILMCMEIIR, peptide start residue: 163) (UniProt Q9Y5Q9)” was run?
**A.** 0.332

**Q.** “ARFGEF1 (peptide sequence: MYMDESR, peptide start residue: 1737) (UniProt Q9Y6D6)” was tested. Which log2 fold change did it give?
**A.** 0.309

**Q.** With “HCFC2 (peptide sequence: ETPSNPVATVK, peptide start residue: 582) (UniProt Q9Y5Z7)” as the target, how does the log2 fold change read?
**A.** 0.146
